Results are given in words; binding and its absence hold for the method and conditions named. Binding seen in cells or lysates may run through a third protein.
Target: ezrin (UniProt P15311)
Assay: co-IP

By UniProt entry, the sequences of proteins in these tests, tags left out. Residues count along the entry.
UniProt P15311: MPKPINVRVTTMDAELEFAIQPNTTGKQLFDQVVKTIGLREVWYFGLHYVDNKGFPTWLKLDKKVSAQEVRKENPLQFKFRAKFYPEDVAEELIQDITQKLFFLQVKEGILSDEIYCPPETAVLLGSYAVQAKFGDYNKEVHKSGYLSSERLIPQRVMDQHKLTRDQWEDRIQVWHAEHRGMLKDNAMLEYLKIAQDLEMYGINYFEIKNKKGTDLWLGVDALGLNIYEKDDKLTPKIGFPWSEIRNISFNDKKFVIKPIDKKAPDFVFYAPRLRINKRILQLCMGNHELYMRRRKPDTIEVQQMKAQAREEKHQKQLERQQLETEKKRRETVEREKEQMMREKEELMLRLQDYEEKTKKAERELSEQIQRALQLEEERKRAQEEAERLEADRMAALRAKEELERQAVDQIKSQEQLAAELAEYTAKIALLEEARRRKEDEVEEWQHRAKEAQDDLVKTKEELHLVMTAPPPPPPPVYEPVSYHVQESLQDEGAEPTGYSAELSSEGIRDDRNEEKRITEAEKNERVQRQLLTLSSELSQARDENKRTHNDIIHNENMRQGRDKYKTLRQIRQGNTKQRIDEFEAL
UniProt P03522, residues 17-511: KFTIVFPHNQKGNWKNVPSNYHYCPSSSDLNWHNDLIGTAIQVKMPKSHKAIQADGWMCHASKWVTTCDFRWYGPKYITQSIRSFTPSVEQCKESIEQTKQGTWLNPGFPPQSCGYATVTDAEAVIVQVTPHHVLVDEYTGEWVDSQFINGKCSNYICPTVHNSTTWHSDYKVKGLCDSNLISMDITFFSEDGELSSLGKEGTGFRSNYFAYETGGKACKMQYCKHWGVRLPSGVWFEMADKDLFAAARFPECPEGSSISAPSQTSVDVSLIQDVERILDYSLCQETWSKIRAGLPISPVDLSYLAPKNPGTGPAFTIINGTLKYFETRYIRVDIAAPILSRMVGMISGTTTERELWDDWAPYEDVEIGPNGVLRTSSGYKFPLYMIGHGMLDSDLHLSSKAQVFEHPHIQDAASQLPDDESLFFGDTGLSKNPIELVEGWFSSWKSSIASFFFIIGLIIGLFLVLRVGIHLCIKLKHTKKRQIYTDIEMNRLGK

## Vesicular stomatitis virus glycoprotein (from UniProt P03522 17-511)
  binding: no binding

Source: publication PMC7201057
